Here are results for two molecules from article PMC11653702, “Targeting the SPC25/RIOK1/MYH9 Axis to Overcome Tumor Stemness and Platinum Resistance in Epithelial Ovarian Cancer” (Advanced Science, 2024).

Sequences of proteins named here, by UniProt entry; tags and fusion partners are left off.
UniProt Q9HBM1: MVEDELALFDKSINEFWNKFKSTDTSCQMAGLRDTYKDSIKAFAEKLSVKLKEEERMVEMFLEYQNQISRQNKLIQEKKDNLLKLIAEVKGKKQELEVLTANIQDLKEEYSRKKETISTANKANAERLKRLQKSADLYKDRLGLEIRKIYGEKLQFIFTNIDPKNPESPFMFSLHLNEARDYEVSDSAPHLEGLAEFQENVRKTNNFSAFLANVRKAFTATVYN
UniProt P35579: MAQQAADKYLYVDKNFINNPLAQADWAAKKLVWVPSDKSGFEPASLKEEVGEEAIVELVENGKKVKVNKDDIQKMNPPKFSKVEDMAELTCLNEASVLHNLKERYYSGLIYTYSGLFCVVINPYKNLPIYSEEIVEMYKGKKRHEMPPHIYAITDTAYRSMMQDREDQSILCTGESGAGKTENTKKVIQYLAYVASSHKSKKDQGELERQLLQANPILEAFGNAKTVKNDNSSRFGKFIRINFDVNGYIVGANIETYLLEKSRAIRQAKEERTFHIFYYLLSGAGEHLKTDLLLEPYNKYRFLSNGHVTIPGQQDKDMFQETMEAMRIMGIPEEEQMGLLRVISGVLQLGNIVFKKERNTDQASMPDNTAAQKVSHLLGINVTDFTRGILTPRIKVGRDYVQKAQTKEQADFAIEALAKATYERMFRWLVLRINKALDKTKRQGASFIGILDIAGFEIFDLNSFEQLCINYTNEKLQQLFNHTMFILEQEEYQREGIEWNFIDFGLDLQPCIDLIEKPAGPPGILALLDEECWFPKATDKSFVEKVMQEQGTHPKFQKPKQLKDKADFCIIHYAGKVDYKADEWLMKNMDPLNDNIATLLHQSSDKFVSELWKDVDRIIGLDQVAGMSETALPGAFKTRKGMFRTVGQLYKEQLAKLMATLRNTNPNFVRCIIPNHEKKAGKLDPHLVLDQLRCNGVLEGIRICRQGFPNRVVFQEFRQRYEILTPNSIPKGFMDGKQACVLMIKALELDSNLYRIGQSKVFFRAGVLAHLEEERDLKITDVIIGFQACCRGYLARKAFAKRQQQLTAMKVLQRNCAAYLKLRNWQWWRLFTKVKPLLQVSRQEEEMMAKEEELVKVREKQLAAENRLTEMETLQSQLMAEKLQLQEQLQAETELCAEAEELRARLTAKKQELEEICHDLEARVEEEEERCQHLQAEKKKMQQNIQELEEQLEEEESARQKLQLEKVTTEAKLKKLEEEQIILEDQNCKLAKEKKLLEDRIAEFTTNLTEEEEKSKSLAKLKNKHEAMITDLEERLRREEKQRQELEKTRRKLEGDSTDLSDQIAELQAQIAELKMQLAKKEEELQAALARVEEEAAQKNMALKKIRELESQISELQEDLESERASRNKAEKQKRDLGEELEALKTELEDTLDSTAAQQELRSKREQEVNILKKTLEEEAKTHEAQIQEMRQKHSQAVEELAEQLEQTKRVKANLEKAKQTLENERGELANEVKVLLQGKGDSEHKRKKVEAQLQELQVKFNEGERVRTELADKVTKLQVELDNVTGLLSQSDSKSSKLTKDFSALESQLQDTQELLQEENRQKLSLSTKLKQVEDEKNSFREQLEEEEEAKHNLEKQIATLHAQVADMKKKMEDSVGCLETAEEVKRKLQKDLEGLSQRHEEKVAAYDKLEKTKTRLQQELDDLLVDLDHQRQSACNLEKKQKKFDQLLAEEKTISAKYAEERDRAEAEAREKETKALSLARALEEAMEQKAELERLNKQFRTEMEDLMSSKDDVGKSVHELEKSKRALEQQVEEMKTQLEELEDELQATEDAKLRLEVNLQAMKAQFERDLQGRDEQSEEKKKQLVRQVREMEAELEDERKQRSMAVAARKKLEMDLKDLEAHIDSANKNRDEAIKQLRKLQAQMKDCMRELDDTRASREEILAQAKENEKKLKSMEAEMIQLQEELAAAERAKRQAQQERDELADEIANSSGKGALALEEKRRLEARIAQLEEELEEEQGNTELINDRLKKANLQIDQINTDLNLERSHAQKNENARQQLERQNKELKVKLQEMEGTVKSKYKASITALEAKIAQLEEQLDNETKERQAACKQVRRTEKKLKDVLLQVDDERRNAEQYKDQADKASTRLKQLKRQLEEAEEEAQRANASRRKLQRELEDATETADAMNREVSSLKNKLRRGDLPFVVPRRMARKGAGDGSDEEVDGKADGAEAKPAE

Like-named read-outs stand apart in the source and are kept apart here. Results are given in words; binding and its absence hold for the method and conditions named. In cells and extracts the contact can be indirect. A yes stands for co-enrichment or nearness to the bait. Other partners may have been found.

The target of assay [1] is spindle pole body component 25 (SPC25), endogenous (human (endogenous in OVCAR8)) (UniProt Q9HBM1). Nature of the assay: affinity purification with mass spectrometry; Co-IP-MS with anti-SPC25 in cytoplasmic lysates of OVCAR8 cells (LC-MS).
Assay [2] has the same target. Described as above. This is another data set of the same source.

Turning to “MYH9, also called nonmuscle myosin IIA (NMIIA), endogenous (from UniProt P35579 1-1960)”, the binding result in assay [1] is “binds”.

B1: RIOK1, endogenous (enzyme, UniProt Q9BRS2 1-568)
chain: MDYRRLLMSRVVPGQFDDADSSDSENRDLKTVKEKDDILFEDLQDNVNENGEGEIEDEEEEGYDDDDDDWDWDEGVGKLAKGYVWNGGSNPQANRQTSDSSSAKMSTPADKVLRKFENKINLDKLNVTDSVINKVTEKSRQKEADMYRIKDKADRATVEQVLDPRTRMILFKMLTRGIITEINGCISTGKEANVYHASTANGESRAIKIYKTSILVFKDRDKYVSGEFRFRHGYCKGNPRKMVKTWAEKEMRNLIRLNTAEIPCPEPIMLRSHVLVMSFIGKDDMPAPLLKNVQLSESKARELYLQVIQYMRRMYQDARLVHADLSEFNMLYHGGGVYIIDVSQSVEHDHPHALEFLRKDCANVNDFFMRHSVAVMTVRELFEFVTDPSITHENMDAYLSKAMEIASQRTKEERSSQDHVDEEVFKRAYIPRTLNEVKNYERDMDIIMKLKEEDMAMNAQQDNILYQTVTGLKKDLSGVQKVPALLENQVEERTCSDSEDIGSSECSDTDSEEQGDHARPKKHTTDPDIDKKERKKMVKEAQREKRKNKIPKHVKKRKEKTAKTKKGK
With B1, in assay [2], the binding entry was “binds”.
